Among the data in patent US20240166731A1 are binding values, retold here.

By UniProt entry, the sequences of proteins in these tests, tags left out. Where a name states a change or a piece, a line headed by the entry shows the natural chain unless it says otherwise.
UniProt P10636: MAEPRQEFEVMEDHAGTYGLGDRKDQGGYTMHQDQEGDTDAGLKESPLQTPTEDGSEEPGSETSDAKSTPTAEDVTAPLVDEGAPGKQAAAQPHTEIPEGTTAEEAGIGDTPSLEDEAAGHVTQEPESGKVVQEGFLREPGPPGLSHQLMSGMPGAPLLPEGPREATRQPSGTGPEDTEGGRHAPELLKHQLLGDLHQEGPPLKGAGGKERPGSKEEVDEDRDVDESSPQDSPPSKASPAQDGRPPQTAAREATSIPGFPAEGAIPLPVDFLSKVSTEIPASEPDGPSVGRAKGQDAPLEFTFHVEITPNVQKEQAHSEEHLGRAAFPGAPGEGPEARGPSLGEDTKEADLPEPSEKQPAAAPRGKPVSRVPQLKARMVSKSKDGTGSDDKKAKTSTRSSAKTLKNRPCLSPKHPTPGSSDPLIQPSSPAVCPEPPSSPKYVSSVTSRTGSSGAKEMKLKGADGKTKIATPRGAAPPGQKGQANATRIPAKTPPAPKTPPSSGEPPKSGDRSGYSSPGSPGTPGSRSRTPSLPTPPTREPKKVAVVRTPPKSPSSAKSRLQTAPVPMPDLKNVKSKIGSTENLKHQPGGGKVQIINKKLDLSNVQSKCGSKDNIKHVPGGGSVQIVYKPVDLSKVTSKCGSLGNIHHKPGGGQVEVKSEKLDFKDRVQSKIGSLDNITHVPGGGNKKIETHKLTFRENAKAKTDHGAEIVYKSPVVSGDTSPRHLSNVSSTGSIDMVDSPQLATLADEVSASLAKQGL

In test [1] the target is biotinylated full-length Tau protein (UniProt P10636). Kind of test: ELISA: biotinylated full-length Tau immobilised at 0.039-2.5 ug/mL (x axis is the antigen concentration), Fab in E. coli supernatant, anti-Fab'2-HRP, chemiluminescence.
Test [2] shares this target. The experiment in a line: ELISA, biotinylated full-length Tau on plate, E. coli Fab supernatant, anti-Fab'2-HRP chemiluminescence. For orientation: In an ELISA, binding on a coated surface is turned into a signal by an enzyme label.
Test [3] has the same target. The experiment in a line: ELISA, figure legend of FIG. 1.
Test [4] deals with human full-length recombinant tau (2N4R) (human) (UniProt P10636). The experiment in a line: SPR, single-cycle kinetics, antibody captured by anti-Fc, tau injected at 2.2, 6.7, 20 and 60 nM, 1:1 Langmuir fit.
Test [5] shares this target. Kind of test: SPR, Biacore T200, mAb captured by anti-Fc, tau in solution. A general note: In SPR one partner is held on a chip, and binding of the other changes the refractive index at the surface.

Substitutions are numbered along the chain they refer to. Results are given in words; binding and its absence hold for the method and conditions named. Some binding calls cover weakened binding; strength is not graded here.

B1: PT1B585 (PT/66) (Fab, V domains shown)
VH: QVQLQQPGAELVKPGASVKMSCKASGYTFTSYWITWVKQRPGQGLEWIGDIHPGRGSTKSNEKFKSKATLTVDTSSSTAYMQFSSLTSEDSAVYYCARRWGFDYWGQGTTLTVSS
VL: DIVITQDELSNPVTSGESVSISCRSSKSLLYKDGKTYLNWFLQRPGQSPQLLIYLMSTRASGVSDRFSGSGSGTDFTLEISRVKAEDVGVYYCQQLVDYPLTFGAGTKLELK
For the molecule B1, the binding result in test [1] and in test [2] was “binds” in each case.

B2: PT1B1142 (Fab, V domains shown)
VH: QVQLVQSGAEVKKPGASVKVSCKASGYTFTSYWITWVRQRPGQGLEWMGDIHPGRGSTKYAQKLQGRVTMTTDTSTSTAYMELRSLRSDDTAVYYCARRWGFDYWGQGTLVTVSS
VL: DIVMTQTPLSSPVTLGQPASISCRSSKSLLYKDGKTYLNWLQQRPGQPPRLLIYLMSTRASGVPDRFSGSGAGTDFTLKISRVEAEDVGVYYCQQLVDYPLTFGQGTKLEIK
In the case of B2, the binding entry in test [1], in test [2] and in test [3] was “binds” each time.

B3: PT1B901 (antibody, human IgG1, kappa, V domains shown)
VH: B2 VH with R40A, M70L
VL: DIVITQTPLSLPVTPGEPASISCRSSKSLLYKDLKTYLNWFLQKPGQSPQLLIYLMSTRASGVPDRFSGSGSGTDFTLKISRVEAEDVGVYYCQQLVDYPLTFGQGTKLEIKR
For the molecule B3, the binding result in test [4] and in test [5] was “binds” throughout.

B4: PT1B635 (antibody, human IgG1, kappa, V domains shown)
VH: B2 VH with R40A, M70L
VL: B3 VL with L34G
B4: the binding entry in test [4] and in test [5] was “binds” throughout.
